Some of the results follow.
Tests used:
Assay in all cases: NMR binding call after quantification (hit when 2 of 3 NMR criteria are met) (binary (1 = binding, 0 = not binding)); higher = binding
Details in all cases: RNA concentration 10 µM; fragment concentration 200 µM; 293 K
SARS-CoV-2 5_SL7 RNA = test system: SARS-CoV-2 5_SL7 RNA
SARS-CoV-2 5_SL8 RNA = test system: SARS-CoV-2 5_SL8 RNA
[1] = test system: SARS-CoV-2 attenuator hairpin (att HP) RNA
[2] = test system: SARS-CoV-2 frameshift pseudoknot (PK) RNA

Structure (SMILES) | NMR binding call (SARS-CoV-2 5_SL7 RNA) | NMR binding call (SARS-CoV-2 5_SL8 RNA) | NMR binding call [1] | NMR binding call [2]
CC(=O)Nc1ccccc1OCc1ccccc1 | 0 | 0 | 0 | 0
CN(C)S(=O)(=O)c1cn[nH]c1 | 0 | 0 | 0 | 0
CNc1nccnc1C#N | 0 | 0 | 0 | 0
CCOC(=O)C1CCN(c2cnccn2)CC1 | 0 | 0 | 0 | 0
CN(C)C(=O)N1CCN(C(=O)N(C)C)CC1 | 0 | 0 | 0 | 0
CC(C)NC(=O)CN1CCCNCC1 | 0 | 0 | 0 | 0
Oc1ccccc1CN1CCc2ccccc2C1 | 0 | 0 | 0 | 0
CC1CN(Cc2nnsc2Cl)C(C)CO1 (stereo unspecified) | 0 | 0 | 0 | 0
CCc1cc(=O)n2nc(NC)sc2n1 | 0 | 0 | 0 | 0
Cc1csc(NCC2CCCO2)n1 (stereo unspecified) | 0 | 0 | 0 | 0
CCC(=O)Nc1c(C(N)=O)oc2ccccc12 | 0 | 0 | 0 | 0
CC(C)c1nccn1CC(=O)O | 0 | 0 | 0 | 0
O=C(COc1ccc(F)cc1)N1CCCC1 | 0 | 0 | 0 | 0
CCC(=O)Nc1ccc(C)cc1O | 0 | 0 | 0 | 0
CC(=O)N1CC(C(=O)O)C1 | 0 | 0 | 0 | 0
O=C(c1csnn1)N1CCOCC1 | 0 | 0 | 0 | 0
Nc1ccc(S(=O)(=O)Nc2ccccc2)cc1 | 0 | 0 | 0 | 0
c1cnc(NC2CCCCCC2)nc1 | 0 | 0 | 0 | 0
CNS(=O)(=O)c1cccc(C)c1F | 0 | 0 | 0 | 0
CNCC1COc2ccccc2O1 (stereo unspecified) | 0 | 0 | 0 | 0
CNC(C)c1cnn(C)c1 (stereo unspecified) | 0 | 0 | 0 | 0
CCc1nnc(NC(=O)CN(C)C)s1 | 0 | 0 | 0 | 0

Structure (SMILES) | NMR binding call (SARS-CoV-2 5_SL7 RNA) | NMR binding call (SARS-CoV-2 5_SL8 RNA) | NMR binding call [1] | NMR binding call [2]
O=C(Cc1ccc(F)cc1)NC1CCCCC1 | 0 | 0 | 0 | 0
Cc1noc(CC(N)c2ccccc2)n1.Cl (stereo unspecified) | 0 | 0 | 0 | 0
CCn1cc(CCO)cn1 | 0 | 0 | 0 | 0
COc1ccccc1N1CCN(CC#N)CC1 | 0 | 0 | 0 | 0
CNC(=O)c1nc2ccccc2c(=O)[nH]1 | 0 | 0 | 0 | 0
CCNC(=O)N1CCN(C(C)=O)CC1 | 0 | 0 | 0 | 0
Cc1ccc(CC(=O)NCC2CCCO2)cc1 (stereo unspecified) | 0 | 0 | 0 | 0
CC(=O)N1CCC(NCCc2ccccc2)CC1 | 0 | 0 | 0 | 0
Cc1c(C(=O)NCC2CCC2)cnn1C | 0 | 0 | 0 | 0
CC(C)NC(=O)c1cc[nH]n1 | 0 | 0 | 0 | 0
CC(=O)Nc1cc(C)n[nH]1 | 0 | 0 | 0 | 0
Cc1csc(CNC(=O)c2cc[nH]n2)n1 | 0 | 0 | 0 | 0
CC(C)C(=O)N1CCC(Cc2ccccc2)CC1 | 0 | 0 | 0 | 0
Oc1ccc(CNC2CCCCC2)cc1 | 0 | 0 | 0 | 0
CS(=O)(=O)NC1CCCC1 | 0 | 0 | 0 | 0
COc1ccc(C(N)C(=O)O)cc1 (stereo unspecified) | 0 | 0 | 0 | 0
CC1CC1C(=O)NCCc1ccc(Cl)cc1 (stereo unspecified) | 0 | 0 | 0 | 0
CCNC1CCN(c2ccncc2)CC1 | 1 | 0 | 0 | 1
CCc1ccc(OCC(=O)N2CCCCC2)cc1 | 0 | 0 | 0 | 0
OCC1CCN(c2ncccn2)CC1 | 0 | 0 | 0 | 0
COc1cccc(C(N)CC(=O)O)c1 (stereo unspecified) | 0 | 0 | 0 | 0
NCc1ccc(-c2cccs2)cc1 | 0 | 0 | 0 | 0

Already shown: entries from further up.
Structure (SMILES) | NMR binding call (SARS-CoV-2 5_SL7 RNA) | NMR binding call (SARS-CoV-2 5_SL8 RNA) | NMR binding call [1] | NMR binding call [2]
CC1CN(Cc2nnsc2Cl)C(C)CO1 (stereo unspecified) | 0 | 0 | 0 | 0
CCc1cc(=O)n2nc(NC)sc2n1 | 0 | 0 | 0 | 0
